# Results are given in words; binding and its absence hold for the method and conditions named. Binding seen in cells or lysates may run through a third protein. A result given as binding can be weak or reduced; the word gives no strength. Tags and fused reporters may be left off the sequences shown.
# Sequences of proteins named here, by UniProt entry; tags and fusion partners are left off. A change or cut given only in a name is not applied to a line headed by its entry.
# UniProt Q96B86: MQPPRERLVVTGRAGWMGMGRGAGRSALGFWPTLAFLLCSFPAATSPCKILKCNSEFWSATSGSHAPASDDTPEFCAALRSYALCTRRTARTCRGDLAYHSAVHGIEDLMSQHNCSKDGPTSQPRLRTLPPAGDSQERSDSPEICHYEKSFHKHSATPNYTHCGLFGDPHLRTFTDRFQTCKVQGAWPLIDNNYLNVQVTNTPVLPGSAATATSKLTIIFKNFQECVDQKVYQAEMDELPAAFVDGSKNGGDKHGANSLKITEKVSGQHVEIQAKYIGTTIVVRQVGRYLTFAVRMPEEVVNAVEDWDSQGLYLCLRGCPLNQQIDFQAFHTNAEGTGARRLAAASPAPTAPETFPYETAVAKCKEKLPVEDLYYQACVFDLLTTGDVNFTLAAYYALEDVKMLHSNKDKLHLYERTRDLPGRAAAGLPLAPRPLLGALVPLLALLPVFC
# Target: T1, VSV-G-tagged full-length neogenin (human) (UniProt Q92859)
# T1 sequence: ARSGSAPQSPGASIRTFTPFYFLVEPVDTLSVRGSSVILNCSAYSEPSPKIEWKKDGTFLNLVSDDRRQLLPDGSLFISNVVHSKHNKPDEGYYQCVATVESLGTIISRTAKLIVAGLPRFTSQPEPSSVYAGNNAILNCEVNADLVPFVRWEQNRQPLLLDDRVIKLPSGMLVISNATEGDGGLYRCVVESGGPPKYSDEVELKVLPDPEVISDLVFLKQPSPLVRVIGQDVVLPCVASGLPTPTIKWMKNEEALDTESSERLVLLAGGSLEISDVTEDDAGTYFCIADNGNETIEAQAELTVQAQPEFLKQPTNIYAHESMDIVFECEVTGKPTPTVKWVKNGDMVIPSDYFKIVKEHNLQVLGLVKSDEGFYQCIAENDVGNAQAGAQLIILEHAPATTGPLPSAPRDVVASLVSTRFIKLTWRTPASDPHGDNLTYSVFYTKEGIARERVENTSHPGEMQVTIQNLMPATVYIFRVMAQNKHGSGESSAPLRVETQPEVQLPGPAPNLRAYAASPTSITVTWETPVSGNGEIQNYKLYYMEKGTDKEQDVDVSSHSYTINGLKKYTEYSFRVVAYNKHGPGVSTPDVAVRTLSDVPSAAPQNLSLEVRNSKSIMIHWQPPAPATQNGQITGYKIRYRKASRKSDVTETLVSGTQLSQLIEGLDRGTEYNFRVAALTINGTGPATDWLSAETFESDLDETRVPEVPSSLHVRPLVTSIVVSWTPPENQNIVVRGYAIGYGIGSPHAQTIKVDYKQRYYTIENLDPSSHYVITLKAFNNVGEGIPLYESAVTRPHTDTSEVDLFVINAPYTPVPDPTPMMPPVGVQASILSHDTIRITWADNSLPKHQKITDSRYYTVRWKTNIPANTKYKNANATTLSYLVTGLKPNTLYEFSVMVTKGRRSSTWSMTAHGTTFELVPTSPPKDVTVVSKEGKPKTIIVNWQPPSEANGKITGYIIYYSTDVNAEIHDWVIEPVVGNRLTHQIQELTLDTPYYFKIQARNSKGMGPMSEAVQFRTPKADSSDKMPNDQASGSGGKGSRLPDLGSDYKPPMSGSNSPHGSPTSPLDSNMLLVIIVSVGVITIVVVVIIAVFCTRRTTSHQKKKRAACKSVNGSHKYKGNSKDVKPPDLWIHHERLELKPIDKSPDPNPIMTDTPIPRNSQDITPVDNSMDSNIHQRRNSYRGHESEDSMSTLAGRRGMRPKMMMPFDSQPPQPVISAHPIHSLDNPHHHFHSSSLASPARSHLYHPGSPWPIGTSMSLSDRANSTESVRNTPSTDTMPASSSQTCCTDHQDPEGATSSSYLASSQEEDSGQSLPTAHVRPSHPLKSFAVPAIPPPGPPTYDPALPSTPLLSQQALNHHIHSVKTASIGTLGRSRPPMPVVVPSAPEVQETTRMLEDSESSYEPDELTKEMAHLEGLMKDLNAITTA
# Assay: co-IP; HEK293T cells co-transfected with VSV-G-neogenin and Myc-RGMa constructs, 36-48 h; lysis in 1% Triton X-100, 150 mM NaCl, 20 mM Tris/HCl pH 7.5; IP with anti-VSV-G and protein A-sepharose at 4°C; blot with anti-Myc
row,binding,Substance
1,binds,"C-RGMa1 (C-RGMa with aa 169-258 deleted), Myc-tagged (from UniProt Q96B86) (domain or fragment)"
2,no binding,"C-RGMa2 (C-RGMa with aa 169-332 deleted), Myc-tagged (from UniProt Q96B86) (domain or fragment)"
3,no binding,"N-terminal region of RGMa, Myc-tagged (human) (domain or fragment)"

row,Substance,binding
1,"C-terminal region of RGMa without a GPI anchor domain, Myc-tagged (human) (domain or fragment)",binds

# — PMC3291610, “Identification of the Neogenin-Binding Site on the Repulsive Guidance Molecule A” (PLoS ONE, 2012)
